The list shows a part of the results.
Experiments:
Assay in all cases: log2 fold change, soluble protein after heating vs DMSO (PISA); higher = thermal stabilisation; K562 cells, 10 uM, 30 min; active = over 0.2 and 3.5 SD of the protein, either way, in both replicates (recomputed)
bafetinib = compound: Cc1ccc(NC(=O)c2ccc(CN3CC[C@H](N(C)C)C3)c(C(F)(F)F)c2)cc1Nc1nccc(-c2cncnc2)n1 [bafetinib]
Procedure, shortened: (§1)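 K562 cells at 2×10^6 cells/mL were given 10 μM compound for 30 min. Aliquots then went through 3 min of heating across 48°C-58°C, were pooled, and were extracted in PBS with 0.5% NP-40 at 4°C, and the supernatant after 21,000xg for 90 min was quantified by TMTpro 16plex LC-MS/MS with channel sums equalised. Thermal stability relative to control samples, from duplicates, is given as log2 fold change.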

The chains behind the UniProt entries cited, without tags or fusion partners. Where a name states a change or a piece, a line headed by the entry shows the natural chain unless it says otherwise.
UniProt P48147: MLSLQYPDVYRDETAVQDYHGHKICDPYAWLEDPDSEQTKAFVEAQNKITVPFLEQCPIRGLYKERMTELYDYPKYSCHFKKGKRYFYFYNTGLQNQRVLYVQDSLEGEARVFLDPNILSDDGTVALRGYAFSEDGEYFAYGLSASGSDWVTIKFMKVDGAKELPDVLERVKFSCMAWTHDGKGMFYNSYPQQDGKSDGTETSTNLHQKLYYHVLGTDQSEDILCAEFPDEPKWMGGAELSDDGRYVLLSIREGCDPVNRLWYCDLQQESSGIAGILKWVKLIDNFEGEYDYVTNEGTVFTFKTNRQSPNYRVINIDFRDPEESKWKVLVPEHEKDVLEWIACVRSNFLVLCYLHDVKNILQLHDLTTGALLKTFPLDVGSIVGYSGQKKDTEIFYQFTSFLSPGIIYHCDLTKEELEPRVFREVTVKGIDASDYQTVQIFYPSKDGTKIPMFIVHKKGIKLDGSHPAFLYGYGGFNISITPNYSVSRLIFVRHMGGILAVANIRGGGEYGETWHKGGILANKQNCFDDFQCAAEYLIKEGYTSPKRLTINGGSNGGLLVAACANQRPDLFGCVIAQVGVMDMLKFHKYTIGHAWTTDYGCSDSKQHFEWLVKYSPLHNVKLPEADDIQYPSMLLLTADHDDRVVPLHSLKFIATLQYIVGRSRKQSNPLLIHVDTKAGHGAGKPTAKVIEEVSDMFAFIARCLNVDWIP
UniProt P60891: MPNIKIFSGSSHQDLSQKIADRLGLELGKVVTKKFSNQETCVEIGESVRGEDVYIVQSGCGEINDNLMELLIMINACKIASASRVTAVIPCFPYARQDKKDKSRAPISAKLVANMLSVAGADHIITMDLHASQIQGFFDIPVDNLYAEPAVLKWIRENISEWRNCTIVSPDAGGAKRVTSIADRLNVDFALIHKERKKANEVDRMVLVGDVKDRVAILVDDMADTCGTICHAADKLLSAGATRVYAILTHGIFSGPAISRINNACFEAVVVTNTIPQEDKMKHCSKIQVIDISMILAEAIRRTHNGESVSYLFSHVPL
UniProt Q13162: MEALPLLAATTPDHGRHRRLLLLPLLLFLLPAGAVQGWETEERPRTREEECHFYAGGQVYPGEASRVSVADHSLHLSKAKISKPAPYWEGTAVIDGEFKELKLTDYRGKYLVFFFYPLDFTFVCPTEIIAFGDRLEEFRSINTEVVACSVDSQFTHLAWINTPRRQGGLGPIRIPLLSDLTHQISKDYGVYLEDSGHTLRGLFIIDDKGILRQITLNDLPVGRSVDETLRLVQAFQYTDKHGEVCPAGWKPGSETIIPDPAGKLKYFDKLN
UniProt O94906: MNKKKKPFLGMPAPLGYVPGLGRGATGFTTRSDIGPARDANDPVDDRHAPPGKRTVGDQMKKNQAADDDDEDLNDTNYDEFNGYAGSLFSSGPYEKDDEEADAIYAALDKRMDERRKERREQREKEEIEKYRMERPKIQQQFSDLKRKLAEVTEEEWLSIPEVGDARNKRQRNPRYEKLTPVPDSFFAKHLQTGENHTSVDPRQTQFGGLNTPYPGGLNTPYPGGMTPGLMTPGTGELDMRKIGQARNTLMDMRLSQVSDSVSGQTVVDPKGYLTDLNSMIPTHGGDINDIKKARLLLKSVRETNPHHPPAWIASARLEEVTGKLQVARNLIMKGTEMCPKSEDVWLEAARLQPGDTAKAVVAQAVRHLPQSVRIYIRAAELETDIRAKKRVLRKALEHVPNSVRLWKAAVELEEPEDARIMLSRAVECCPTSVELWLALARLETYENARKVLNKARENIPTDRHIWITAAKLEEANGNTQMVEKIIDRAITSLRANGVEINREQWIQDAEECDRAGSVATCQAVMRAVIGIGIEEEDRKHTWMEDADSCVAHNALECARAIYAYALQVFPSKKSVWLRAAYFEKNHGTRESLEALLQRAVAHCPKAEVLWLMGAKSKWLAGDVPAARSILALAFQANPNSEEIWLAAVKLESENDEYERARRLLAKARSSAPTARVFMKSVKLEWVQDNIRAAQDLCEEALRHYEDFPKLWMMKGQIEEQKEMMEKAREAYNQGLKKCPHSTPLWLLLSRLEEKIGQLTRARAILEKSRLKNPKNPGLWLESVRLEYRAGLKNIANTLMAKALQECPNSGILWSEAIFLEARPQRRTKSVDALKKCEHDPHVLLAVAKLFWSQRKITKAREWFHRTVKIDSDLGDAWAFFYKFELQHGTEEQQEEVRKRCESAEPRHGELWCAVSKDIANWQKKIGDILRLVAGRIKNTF
UniProt P60510: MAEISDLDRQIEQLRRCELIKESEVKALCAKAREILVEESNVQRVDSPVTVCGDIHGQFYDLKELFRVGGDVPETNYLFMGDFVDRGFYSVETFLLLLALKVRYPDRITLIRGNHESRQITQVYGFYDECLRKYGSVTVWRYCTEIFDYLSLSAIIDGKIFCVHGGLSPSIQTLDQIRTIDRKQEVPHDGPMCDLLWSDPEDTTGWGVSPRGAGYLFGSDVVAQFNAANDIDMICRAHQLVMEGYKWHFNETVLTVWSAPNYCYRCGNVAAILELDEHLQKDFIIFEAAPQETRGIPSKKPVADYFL
UniProt P41219, whole entry, looked up: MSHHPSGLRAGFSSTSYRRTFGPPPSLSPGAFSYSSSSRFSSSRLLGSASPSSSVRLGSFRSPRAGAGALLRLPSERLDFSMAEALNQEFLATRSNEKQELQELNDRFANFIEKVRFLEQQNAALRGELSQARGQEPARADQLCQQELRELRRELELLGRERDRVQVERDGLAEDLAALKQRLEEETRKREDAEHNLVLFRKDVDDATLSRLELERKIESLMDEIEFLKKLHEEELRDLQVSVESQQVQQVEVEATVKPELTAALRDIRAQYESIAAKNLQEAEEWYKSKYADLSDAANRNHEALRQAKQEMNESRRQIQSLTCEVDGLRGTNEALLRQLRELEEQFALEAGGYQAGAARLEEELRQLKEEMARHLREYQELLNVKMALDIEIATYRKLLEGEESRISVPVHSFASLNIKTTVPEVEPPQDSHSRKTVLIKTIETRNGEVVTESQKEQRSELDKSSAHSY
UniProt Q04759: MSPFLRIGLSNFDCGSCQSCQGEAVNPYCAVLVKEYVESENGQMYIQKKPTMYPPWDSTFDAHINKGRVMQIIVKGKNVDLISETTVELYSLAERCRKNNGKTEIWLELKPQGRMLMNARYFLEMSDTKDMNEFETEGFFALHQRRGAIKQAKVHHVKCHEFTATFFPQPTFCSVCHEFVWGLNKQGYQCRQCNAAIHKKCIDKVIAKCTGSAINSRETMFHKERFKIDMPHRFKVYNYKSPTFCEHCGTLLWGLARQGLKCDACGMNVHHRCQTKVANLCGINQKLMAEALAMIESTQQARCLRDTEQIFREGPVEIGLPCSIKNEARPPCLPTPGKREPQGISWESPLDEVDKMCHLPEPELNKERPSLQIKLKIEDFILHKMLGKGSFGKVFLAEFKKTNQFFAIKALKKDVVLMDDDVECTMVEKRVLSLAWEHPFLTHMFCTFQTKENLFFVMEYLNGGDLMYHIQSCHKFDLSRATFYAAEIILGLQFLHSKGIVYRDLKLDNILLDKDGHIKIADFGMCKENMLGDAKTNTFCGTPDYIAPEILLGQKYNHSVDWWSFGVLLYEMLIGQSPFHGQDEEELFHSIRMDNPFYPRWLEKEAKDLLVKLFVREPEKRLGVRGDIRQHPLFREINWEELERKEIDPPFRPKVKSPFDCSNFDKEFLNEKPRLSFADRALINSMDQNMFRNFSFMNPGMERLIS
UniProt O60678: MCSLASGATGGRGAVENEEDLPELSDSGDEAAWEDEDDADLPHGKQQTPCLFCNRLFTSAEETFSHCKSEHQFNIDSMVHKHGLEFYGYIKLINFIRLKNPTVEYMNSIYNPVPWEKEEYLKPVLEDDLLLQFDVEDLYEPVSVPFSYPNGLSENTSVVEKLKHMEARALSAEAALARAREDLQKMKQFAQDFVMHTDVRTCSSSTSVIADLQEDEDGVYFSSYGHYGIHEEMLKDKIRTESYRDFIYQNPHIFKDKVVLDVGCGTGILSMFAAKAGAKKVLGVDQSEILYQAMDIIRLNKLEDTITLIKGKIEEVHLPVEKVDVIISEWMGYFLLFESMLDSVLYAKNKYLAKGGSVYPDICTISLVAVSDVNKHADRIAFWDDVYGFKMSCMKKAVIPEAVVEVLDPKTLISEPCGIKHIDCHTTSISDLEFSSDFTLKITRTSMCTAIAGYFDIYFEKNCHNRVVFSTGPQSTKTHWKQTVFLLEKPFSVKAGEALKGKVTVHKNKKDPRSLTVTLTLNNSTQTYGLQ
UniProt Q9Y255: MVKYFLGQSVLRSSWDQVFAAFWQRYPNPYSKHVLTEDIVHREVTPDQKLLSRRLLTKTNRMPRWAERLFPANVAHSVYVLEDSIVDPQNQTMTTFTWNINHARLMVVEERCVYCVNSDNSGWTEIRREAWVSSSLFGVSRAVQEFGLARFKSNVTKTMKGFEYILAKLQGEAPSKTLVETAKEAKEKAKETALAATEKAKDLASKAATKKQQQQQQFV
UniProt P14314: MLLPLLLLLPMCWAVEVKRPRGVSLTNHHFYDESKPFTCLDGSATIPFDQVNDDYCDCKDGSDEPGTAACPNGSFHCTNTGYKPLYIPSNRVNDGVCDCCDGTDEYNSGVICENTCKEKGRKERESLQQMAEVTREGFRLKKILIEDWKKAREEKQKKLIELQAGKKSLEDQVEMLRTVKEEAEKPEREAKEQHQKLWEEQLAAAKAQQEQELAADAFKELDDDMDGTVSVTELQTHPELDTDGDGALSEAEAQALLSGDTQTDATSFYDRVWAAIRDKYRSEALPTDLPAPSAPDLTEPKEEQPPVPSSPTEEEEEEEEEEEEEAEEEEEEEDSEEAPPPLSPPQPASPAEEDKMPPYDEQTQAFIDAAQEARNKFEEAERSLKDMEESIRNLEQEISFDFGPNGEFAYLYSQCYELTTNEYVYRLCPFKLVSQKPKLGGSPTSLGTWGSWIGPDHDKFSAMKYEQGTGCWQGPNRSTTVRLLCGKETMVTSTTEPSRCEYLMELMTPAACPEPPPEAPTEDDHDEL

[1] = compound: Cc1cccc(CC(=O)N2CCc3c2ccc(-c2cn(C)c4ncnc(N)c24)c3F)n1
Procedure, shortened: as §1

nilotinib = compound: Cc1cn(-c2cc(NC(=O)c3ccc(C)c(Nc4nccc(-c5cccnc5)n4)c3)cc(C(F)(F)F)c2)cn1 [nilotinib]
Procedure, shortened: as §1

[2] = compound: Cc1nc(Nc2n[nH]c3c2CN(C(=O)N[C@H](CN(C)C)c2ccccc2)C3(C)C)c2sccc2n1
Procedure, shortened: as §1

dasatinib = compound: Cc1nc(Nc2ncc(C(=O)Nc3c(C)cccc3Cl)s2)cc(N2CCN(CCO)CC2)n1 [dasatinib]
Procedure, shortened: as §1

[3] = compound: Cc1ncc(-c2ccnc(Nc3ccc(S(C)(=O)=O)cc3)n2)n1C(C)C
Procedure, shortened: as §1

[4] = compound: Cn1cc(-c2ccc3c(c2)CCN3C(=O)Cc2cccc(C(F)(F)F)c2)c2c(N)ncnc21
Procedure, shortened: as §1

[5] = compound: Cn1cc(-c2ccc3nnc(C(F)(F)c4ccc5ncccc5c4)n3n2)cn1
Procedure, shortened: as §1

tipifarnib = compound: Cn1cncc1[C@@](N)(c1ccc(Cl)cc1)c1ccc2c(c1)c(-c1cccc(Cl)c1)cc(=O)n2C [tipifarnib]
Procedure, shortened: as §1

mubritinib = compound: FC(F)(F)c1ccc(/C=C/c2nc(COc3ccc(CCCCn4ccnn4)cc3)co2)cc1 [mubritinib]
Procedure, shortened: as §1

[6] = compound: NC(=O)Nc1cc(-c2cccc(F)c2)sc1C(=O)N[C@H]1CCCNC1
Procedure, shortened: as §1

[7] = compound: NC(=O)c1cnc(N[C@@H]2CCCC[C@@H]2N)nc1Nc1cccc(-n2nccn2)c1
Procedure, shortened: as §1

[8] = compound: NC1(c2ccc(-c3nc4ccn5c(=O)[nH]nc5c4cc3-c3ccccc3)cc2)CCC1
Procedure, shortened: as §1

[9] = compound: NCC(=O)Nc1ccc(-n2nc(C(F)(F)F)cc2-c2ccc3c(ccc4ccccc43)c2)cc1
Procedure, shortened: as §1

entinostat = compound: Nc1ccccc1NC(=O)c1ccc(CNC(=O)OCc2cccnc2)cc1 [entinostat]
Procedure, shortened: as §1

vorinostat = compound: O=C(CCCCCCC(=O)Nc1ccccc1)NO [vorinostat]
Procedure, shortened: as §1

citarinostat = compound: O=C(CCCCCCNC(=O)c1cnc(N(c2ccccc2)c2ccccc2Cl)nc1)NO [citarinostat]
Procedure, shortened: as §1

silmitasertib = compound: O=C(O)c1ccc2c(c1)nc(Nc1cccc(Cl)c1)c1ccncc12 [silmitasertib]
Procedure, shortened: as §1

[10] = compound: O=C1NC(=O)C(c2cnc3ccccn23)=C1c1cn2c3c(cc(F)cc13)CN(C(=O)N1CCCCC1)CC2
Procedure, shortened: as §1

[11] = compound: c1cc(OCCN2CCCCC2)cc(-c2n[nH]c3ccc(-c4nnc[nH]4)cc23)c1
Procedure, shortened: as §1

| Target | log2 fold change (bafetinib) | log2 fold change [1] | log2 fold change (nilotinib) | log2 fold change [2] | log2 fold change (dasatinib) | log2 fold change [3] | log2 fold change [4] | log2 fold change [5] | log2 fold change (tipifarnib) | log2 fold change (mubritinib) | log2 fold change [6] | log2 fold change [7] | log2 fold change [8] | log2 fold change [9] | log2 fold change (entinostat) | log2 fold change (vorinostat) | log2 fold change (citarinostat) | log2 fold change (silmitasertib) | log2 fold change [10] | log2 fold change [11] |
| --- | --- | --- | --- | --- | --- | --- | --- | --- | --- | --- | --- | --- | --- | --- | --- | --- | --- | --- | --- | --- |
| PREP (UniProt P48147) | inactive: 0.006 | inactive: 0.02 | inactive: -0.01 | inactive: -0.063 | inactive: -0.124 | inactive: 0.029 | inactive: -0.067 | inactive: -0.011 | inactive: -0.136 | inactive: -0.024 | inactive: 0.032 | inactive: -0.11 | inactive: -0.063 | inactive: -0.046 | inactive: 0.011 | inactive: 0.029 | inactive: 0.034 | inactive: 0.148 | inactive: 0.09 | inactive: -0.09 |
| PRPS1 (UniProt P60891) | inactive: 0.035 | inactive: -0.024 | inactive: -0.025 | inactive: 0.03 | inactive: 0.026 | inactive: 0.031 | inactive: -0.033 | inactive: 0.023 | inactive: -0.051 | inactive: 0.03 | inactive: 0.035 | inactive: 0.024 | inactive: -0.014 | inactive: 0.009 | inactive: 0.004 | inactive: -0.023 | inactive: -0.001 | inactive: -0.005 | inactive: -0.008 | inactive: -0.015 |
| PRDX4 (UniProt Q13162) | inactive: -0.023 | inactive: -0.027 | inactive: -0.03 | inactive: -0.003 | inactive: 0.013 | inactive: -0.061 | inactive: 0.051 | inactive: -0.061 | inactive: 0.079 | inactive: 0.004 | inactive: -0.02 | inactive: -0.04 | inactive: -0.087 | inactive: -0.027 | inactive: -0.015 | inactive: 0.021 | inactive: 0.011 | inactive: 0.023 | inactive: -0.008 | inactive: -0.079 |
| PRG4 (UniProt Q92954) | inactive: -0.095 | inactive: 0.104 | inactive: -0.05 | inactive: 0.065 | inactive: 0 | inactive: 0.258 | inactive: 0.203 | inactive: 0.068 |  | inactive: -0.016 | inactive: -0.168 | inactive: -0.113 | inactive: -0.16 | inactive: -0.068 | inactive: -0.156 | inactive: 0.201 | inactive: -0.015 | inactive: 0 | inactive: -0.109 | inactive: -0.097 |
| PRPF6 (UniProt O94906) | inactive: 0.115 | inactive: -0.182 |  |  | inactive: -0.035 |  |  | inactive: -0.11 |  |  | inactive: 0.238 | inactive: 0.041 |  |  | inactive: 0.03 | inactive: -0.059 |  |  | inactive: -0.226 |  |
| PPP4C (UniProt P60510) | inactive: -0.068 | inactive: 0.056 | inactive: 0.002 | inactive: 0.02 | inactive: 0.06 | inactive: -0.029 | inactive: -0.004 | inactive: 0.013 | inactive: 0.075 | inactive: 0.112 | inactive: -0.001 | inactive: 0.003 | inactive: 0.015 | inactive: 0.01 | inactive: -0.015 | inactive: 0.003 | inactive: 0.064 | inactive: -0.031 | inactive: -0.043 | inactive: -0.136 |
| PRPH isoform 2 (UniProt P41219) | inactive: -0.171 | inactive: 0.001 | inactive: 0.104 | inactive: -0.141 | inactive: 0.356 | inactive: -0.048 | inactive: -0.276 | inactive: -0.222 | inactive: 0.353 | inactive: -0.169 | inactive: 0.057 | inactive: -0.076 | inactive: -0.135 | inactive: 0.07 | inactive: 0.016 | inactive: -0.087 | inactive: -0.044 | inactive: 0.168 |  | inactive: -0.224 |
| PRKCQ (UniProt Q04759) | inactive: -0.027 | inactive: 0.024 | inactive: -0.051 | active: -0.821 | inactive: -0.171 | inactive: 0.003 | inactive: 0.069 | inactive: 0.031 | inactive: -0.134 | inactive: 0.12 | active: -0.337 | inactive: -0.135 | inactive: -0.198 | inactive: -0.052 | inactive: 0.002 | inactive: 0.035 | inactive: 0.001 | inactive: 0.002 | inactive: -0.021 | inactive: -0.187 |
| PRMT3 (UniProt O60678) | inactive: 0.048 | inactive: 0.034 | inactive: -0.155 | inactive: 0.011 | inactive: -0.153 | inactive: -0.02 | inactive: -0.044 | inactive: -0.004 | inactive: -0.126 | inactive: 0.081 | inactive: 0.042 | inactive: -0.05 | inactive: -0.187 | inactive: -0.034 | inactive: 0.055 | inactive: 0.041 | inactive: 0.042 | inactive: -0.023 | inactive: -0.027 | inactive: -0.027 |
| PRELID1 (UniProt Q9Y255) | inactive: 0.145 | inactive: -0.04 | inactive: 0.124 | inactive: -0.074 |  | inactive: -0.117 |  |  | inactive: 0.306 | inactive: -0.081 | inactive: -0.027 |  | inactive: 0.219 | inactive: 0.283 | inactive: 0.026 | inactive: -0.008 |  | inactive: -0.055 | inactive: -0.06 |  |
| PRKCA (UniProt P17252) | inactive: -0.043 | inactive: -0.066 | inactive: -0.011 | inactive: -0.173 | inactive: -0.233 | inactive: -0.005 | inactive: 0.082 | inactive: -0.022 | inactive: -0.026 | inactive: 0.054 | inactive: -0.085 | inactive: -0.134 | inactive: -0.181 | inactive: -0.029 | inactive: 0.057 | inactive: 0.117 | inactive: 0.028 | inactive: -0.045 | inactive: -0.205 | inactive: -0.091 |
| PPP1CC (UniProt F8W1A0) | inactive: -0.085 | inactive: -0.65 |  |  |  |  |  |  |  | inactive: 0.324 |  |  | inactive: 0.055 |  |  | inactive: 0.105 |  | inactive: 0.044 |  |  |
| PRKCSH isoform 2 (UniProt P14314) | inactive: -0.127 | inactive: 0.18 | inactive: -0.011 | inactive: -0.101 | inactive: 0.004 | inactive: -0.079 | inactive: -0.122 | inactive: -0.354 |  | inactive: -0.027 |  | inactive: -0.166 | inactive: -0.016 | inactive: -0.237 |  | inactive: 0.039 | inactive: 0.027 | inactive: 0.076 | inactive: -0.182 | inactive: -0.145 |

Part of the list above in another layout:
Target	log2 fold change (bafetinib)	log2 fold change [1]	log2 fold change (nilotinib)	log2 fold change [2]	log2 fold change (dasatinib)	log2 fold change [3]	log2 fold change [4]	log2 fold change [5]	log2 fold change (tipifarnib)	log2 fold change (mubritinib)	log2 fold change [6]	log2 fold change [7]	log2 fold change [8]	log2 fold change [9]	log2 fold change (entinostat)	log2 fold change (vorinostat)	log2 fold change (citarinostat)	log2 fold change (silmitasertib)	log2 fold change [10]	log2 fold change [11]
PRG4 (UniProt Q92954)	inactive: -0.095	inactive: 0.104	inactive: -0.05	inactive: 0.065	inactive: 0	inactive: 0.258	inactive: 0.203	inactive: 0.068		inactive: -0.016	inactive: -0.168	inactive: -0.113	inactive: -0.16	inactive: -0.068	inactive: -0.156	inactive: 0.201	inactive: -0.015	inactive: 0	inactive: -0.109	inactive: -0.097
PRPH isoform 2 (UniProt P41219)	inactive: -0.171	inactive: 0.001	inactive: 0.104	inactive: -0.141	inactive: 0.356	inactive: -0.048	inactive: -0.276	inactive: -0.222	inactive: 0.353	inactive: -0.169	inactive: 0.057	inactive: -0.076	inactive: -0.135	inactive: 0.07	inactive: 0.016	inactive: -0.087	inactive: -0.044	inactive: 0.168		inactive: -0.224
